Data reported in the supplement of paper PMC11348887.
Where a name gives a salt, the structure may show the parent alone. Some of the results follow. Small differences around the control level are noise.

Tested on: hPSC-derived cortical neurons (WA09)
Test: nucleus roundness z-score vs screen plate; higher = rounder nuclei (more mature)
Conditions: 5 µM; treatment: days 7-14 after plating, readout day 21

SMILES	nucleus roundness z-score
Nc1nc2[nH]cc(CCc3ccc(C(=O)N[C@@H](CCC(=O)O)C(=O)O)cc3)c2c(=O)[nH]1 [Pemetrexed]	0.2
C[C@@H]1COC(Nc2ccc3ncnc(Nc4ccc(OCc5nccs5)c(Cl)c4)c3c2)=N1 [Varlitinib]	0.0861
COc1ccc(/C=C\c2cc(OC)c(OC)c(OC)c2)cc1O [Combretastatin A4]	-11
CN(C)c1ccc(C(=C2C=CC(=[N+](C)C)C=C2)c2ccc(N(C)C)cc2)cc1 [Crystal Violet]	2.83
COc1cc2nc(N3CCN(C(=O)c4ccco4)CC3)nc(N)c2cc1OC [Prazosin HCl]	0.465
CC(=O)OCC[N+](C)(C)C [Acetylcholine Chloride]	-0.553
CN[C@@H]1[C@@H](O)[C@@H](O[C@@H]2[C@@H](O)[C@H](O[C@H]3OC(CN)=CC[C@H]3N)[C@@H](N)C[C@H]2N)OC[C@]1(C)O [Sisomicin sulfate]	0.558
CCCCOC(=O)c1ccc(N)cc1 [Butamben]	0.11
CN(C)CCc1c[nH]c2ccc(CS(=O)(=O)N3CCCC3)cc12 [Almotriptan Malate]	0.672
Cc1ccc(Nc2c(F)cccc2Cl)c(CC(=O)O)c1 [Lumiracoxib]	1.55
Nc1ccc(C(=O)O)cc1 [4-Aminobenzoic acid]	-0.508
C[C@]12CCC(=O)C=C1CC[C@@H]1[C@@H]2[C@@H](O)C[C@@]2(C)[C@H]1CC[C@]2(O)C(=O)CO [Hydrocortisone]	0.822
CC(C)c1cc(-c2ccc(F)c3ccccc23)nc(N)n1	0.74
CCN(CC)CCOC(=O)C1(C2CCCCC2)CCCCC1 [Dicyclomine HCl]	-0.0144
C#CCN[C@@H]1CCc2ccccc21 [Rasagiline Mesylate]	1.18
CCCCc1nc2cc(/C=C/C(=O)NO)ccc2n1CCN(CC)CC [Pracinostat (SB939)]	-4.24
C1N2CN3CN1CN(C2)C3 [Methenamine]	0.992
COc1cc2ncnc(Sc3nnc(C)s3)c2cc1OC	0.249
NC(=O)c1ccc(N(C(N)=O)c2c(F)cccc2F)nc1-c1ccc(F)cc1F	0.882
CNC[C@H](O)c1ccc(O)c(O)c1 [Epinephrine HCl]	-0.429
O=C(NCCO[N+](=O)[O-])c1cccnc1 [Nicorandil]	-0.179
CCOc1ccc2ccccc2c1C(=O)N[C@@H]1C(=O)N2[C@@H]1SC(C)(C)[C@@H]2C(=O)O [Nafcillin Sodium]	-0.507
COc1ccccc1N1CCN(CCN(C(=O)C2CCCCC2)c2ccccn2)CC1	0.409
C[C@]12CC[C@@H]3c4ccc(O)cc4CC[C@H]3[C@@H]1CC[C@@H]2O [Estradiol]	0.657
COc1cc2c(c(OC)c1OC)-c1c(cc3c(c1OC)OCO3)CC(C)C(C)C2 (stereo not given) [Schisandrin B (Sch B)]	0.177

Tested on: hPSC-derived cortical neurons (WA09)
Test: KCl-induced FOS+/EGR-1+ double-positive nuclei fraction z-score (KCl minus unstimulated); higher = stronger activity-induced IEG response
Conditions: 5 µM; treatment: days 7-14 after plating, readout day 21

SMILES	KCl-induced FOS+/EGR-1+ double-positive nuclei fraction z-score
CNC[C@H](O)c1cccc(O)c1 [Phenylephrine HCl]	-0.397
Cc1c(C(=O)NN2CCCCC2)nn(-c2ccc(Cl)cc2Cl)c1-c1ccc(I)cc1	0.332
Cc1cnc(NC(=O)Nc2cc(Br)c(C)cc2OC[C@@H]2CNCCO2)cn1	3.04
CN(C)CCN1C(=O)c2cccc3cc(N)cc(c23)C1=O [Amonafide]	-0.337
Cc1oncc1C(=O)Nc1ccc(C(F)(F)F)cc1 [Leflunomide]	1.38
O=C(NNc1ccccc1)c1ccncc1	-0.755
CN1CCC(COc2cnc(-c3cccc(Cn4nc(-c5cccc(C#N)c5)ccc4=O)c3)nc2)CC1	1.04
O=C(Nc1cccc(C(F)(F)F)c1)Nc1cc(S(=O)(=O)NC2CC2)ccc1-c1ccsc1	-0.732
O=C(O)CCCCCCCC(=O)O [Azelaic acid]	-0.1
CN1CCN(C(=O)/C=C/c2ccc([N+](=O)[O-])o2)CC1	-1.69
Cc1ccc(C(=O)N(CCCN)[C@@H](c2nc3cc(Cl)ccc3c(=O)n2Cc2ccccc2)C(C)C)cc1	-3.45
Nc1ccc(C(=O)NCC(=O)O)cc1 [4-Aminohippuric Acid]	0.69
CC(=O)NC[C@H]1CN(c2ccc(N3CCOCC3)c(F)c2)C(=O)O1 [Linezolid]	0.463
Cc1nn(C)c(COc2ccc(N3CCN(S(=O)(=O)N(C)C)CC3)cc2)c1-c1cccc2c(CCCOc3cccc4ccccc34)c(C(=O)O)n(CCN3CCOCC3)c12	-0.27
O=C1CN(/N=C/c2ccc([N+](=O)[O-])o2)C(=O)N1 [Nitrofurantoin]	1.36
Nc1nc2[nH]cc(CCc3ccc(C(=O)N[C@@H](CCC(=O)O)C(=O)O)cc3)c2c(=O)[nH]1 [Pemetrexed]	1.54
C[C@@H]1COC(Nc2ccc3ncnc(Nc4ccc(OCc5nccs5)c(Cl)c4)c3c2)=N1 [Varlitinib]	-0.923
COc1ccc(/C=C\c2cc(OC)c(OC)c(OC)c2)cc1O [Combretastatin A4]	-6.04
CN(C)c1ccc(C(=C2C=CC(=[N+](C)C)C=C2)c2ccc(N(C)C)cc2)cc1 [Crystal Violet]	-0.97
COc1cc2nc(N3CCN(C(=O)c4ccco4)CC3)nc(N)c2cc1OC [Prazosin HCl]	0.455

SMILES	KCl-induced FOS+/EGR-1+ double-positive nuclei fraction z-score
CC(=O)OCC[N+](C)(C)C [Acetylcholine Chloride]	0.102
CN[C@@H]1[C@@H](O)[C@@H](O[C@@H]2[C@@H](O)[C@H](O[C@H]3OC(CN)=CC[C@H]3N)[C@@H](N)C[C@H]2N)OC[C@]1(C)O [Sisomicin sulfate]	0.139
CCCCOC(=O)c1ccc(N)cc1 [Butamben]	0.687
CN(C)CCc1c[nH]c2ccc(CS(=O)(=O)N3CCCC3)cc12 [Almotriptan Malate]	0.234
Cc1ccc(Nc2c(F)cccc2Cl)c(CC(=O)O)c1 [Lumiracoxib]	1.67
Nc1ccc(C(=O)O)cc1 [4-Aminobenzoic acid]	1.19
C[C@]12CCC(=O)C=C1CC[C@@H]1[C@@H]2[C@@H](O)C[C@@]2(C)[C@H]1CC[C@]2(O)C(=O)CO [Hydrocortisone]	2.37
CC(C)c1cc(-c2ccc(F)c3ccccc23)nc(N)n1	-0.0141
CCN(CC)CCOC(=O)C1(C2CCCCC2)CCCCC1 [Dicyclomine HCl]	0.0738
C#CCN[C@@H]1CCc2ccccc21 [Rasagiline Mesylate]	1.2
CCCCc1nc2cc(/C=C/C(=O)NO)ccc2n1CCN(CC)CC [Pracinostat (SB939)]	-1.22
C1N2CN3CN1CN(C2)C3 [Methenamine]	1.77
COc1cc2ncnc(Sc3nnc(C)s3)c2cc1OC	-0.339
NC(=O)c1ccc(N(C(N)=O)c2c(F)cccc2F)nc1-c1ccc(F)cc1F	1.79
CNC[C@H](O)c1ccc(O)c(O)c1 [Epinephrine HCl]	0.851
O=C(NCCO[N+](=O)[O-])c1cccnc1 [Nicorandil]	-0.842
CCOc1ccc2ccccc2c1C(=O)N[C@@H]1C(=O)N2[C@@H]1SC(C)(C)[C@@H]2C(=O)O [Nafcillin Sodium]	-0.486
COc1ccccc1N1CCN(CCN(C(=O)C2CCCCC2)c2ccccn2)CC1	0.335
C[C@]12CC[C@@H]3c4ccc(O)cc4CC[C@H]3[C@@H]1CC[C@@H]2O [Estradiol]	-0.665
COc1cc2c(c(OC)c1OC)-c1c(cc3c(c1OC)OCO3)CC(C)C(C)C2 (stereo not given) [Schisandrin B (Sch B)]	-0.568

Five records picked at random from the list so far, as already listed:
SMILES	KCl-induced FOS+/EGR-1+ double-positive nuclei fraction z-score
NC(=O)c1ccc(N(C(N)=O)c2c(F)cccc2F)nc1-c1ccc(F)cc1F	1.79
Nc1ccc(C(=O)O)cc1 [4-Aminobenzoic acid]	1.19
C[C@]12CCC(=O)C=C1CC[C@@H]1[C@@H]2[C@@H](O)C[C@@]2(C)[C@H]1CC[C@]2(O)C(=O)CO [Hydrocortisone]	2.37
CNC[C@H](O)c1ccc(O)c(O)c1 [Epinephrine HCl]	0.851
CC(=O)OCC[N+](C)(C)C [Acetylcholine Chloride]	0.102
